Some results were stated once for a whole list of compounds, not compound by compound. Not every detail of the peptide structures is certain; ends, links or a residue may be inferred.
Test system: growth hormone (GH) production
Experiment: GH production suppression test with rats
Format: in vivo
Conditions: rat, s.c., 10 nmol/kg, 1 h before GRF
Excerpt: As shown in Example 69, the glycosylated polypeptide of the present invention had affinity towards each receptor of SSTR. […] Increase of GH production amount into the blood is thought to cause proliferation or differentiation of cells and activation or suppression of the biosynthetic system in various organs via the paracrine effect of GH, and thereby influence biological reactions. Somatostatin released from the hypothalamus suppresses GH secretion from the anterior pituitary gland into the blood.
. Moreover, GRF (GH releasing hormone, Growth hormone releasing factor) was used as the GH release enhancer. GRF was prepared by dissolving GRF injectable solution (GRF Sumitomo 50 for injection, Lot. 2006C, from Dainippon Sumitomo Pharma Co., Ltd.) in 1 mL of water for injection (Lot. 09H18C, from Fuso Pharmaceutical Industries, Ltd.), and then diluting to 25-folds with saline to obtain 2 μg/mL. As heparin employed as the anticoagulant when collecting blood, Japanese Pharmacopeia heparin sodium injectable solution (Lot. B084, from Mochida Pharmaceutical Co., Ltd.) was used directly as stock solution.
[…]. As the control group, saline without glycosylated polypeptide was similarly administered (vehicle group). Then, i.e. between 5-6 minutes after the administration of the glycosylated form, pentobarbital sodium (somnopentyl, Lot. 0608101, from Kyoritsuseiyaku Corporation) was intraperitoneally administered as a general anesthetic with a glass syringe and an injection needle to give 50 mg/kg. […] […].
. […] By multiplying the results obtained and the dilution ratio, the GH concentration was calculated.

Substance	GH production suppression effect
A9C(disialo)-SRIF28 [Example 3]	95-99%
E12C(disialo)-SRIF28 [Example 4]	95-99%
N5C(disialo)-SRIF28 [Example 2]	95-99%
S1C(disialo(Bn))-SRIF28 [Example 61]	95-99%
S1C(disialo(amide))-SRIF28 [Example 60]	70-99%
S1C(disialo(aminoethylamide))-SRIF28 [Example 59]	70-99%
S1C(disialo)-D-Trp22-SRIF28 [Example 15]	95-99%

Source: patent publication US9441024B2, “Glycosylated polypeptide and drug composition containing said polypeptide” (priority 2011, dated 2016)
